Data as given in PubChem BioAssay AID1259308 (NCATS, 2017)
Screen: 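Genes whose loss raises luciferase production in HEK293 cells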 (primary screen). Cell system: human HEK293 embryonic kidney cells stably expressing firefly luciferase (HEK-CMV-Luc2-Hygro). Reagents: single siRNA against human genes, 0.8 pmol siRNA per well. Timing: 72 h. Detection: 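Luciferase light (ONE-Glo) measured on one replicate plate set and viability (CellTiter-Glo) on the other, scaled to a negative control siRNA, with robust z-scores and luciferase per cell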. Reading the numbers: total luciferase, z-score and total luciferase, % of control: higher = more reporter protein produced; luciferase per cell, z-score: higher = more reporter output per viable cell; viable cells, % of control: higher = more viable cells. Call rule: 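Active when the median/MAD z-score for overall luciferase is greater than 3; a gene was taken forward for validation with new siRNAs if at least two of its three siRNAs passed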. Calls: active = raised luciferase; inactive = no rise.
Here is one part, drawn at random, of about 59,000 deposited reagents. About 1,510 of them (2.6%) were called active. 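Calls use total luciferase alone and ignore viability, so some active siRNAs may act by altering cell number.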 Reagents against one gene are numbered here.

Target gene | siRNA no. | total luciferase, z-score | total luciferase, % of control | luciferase per cell, z-score | viable cells, % of control | Call
USP27X (ubiquitin specific peptidase 27 X-linked) | 1 | -1.87 | 44.7 | -2.48 | 96 | inactive
USP27X (ubiquitin specific peptidase 27 X-linked) | 2 | -0.81 | 65.8 | -0.455 | 82.8 | inactive
USP27X (ubiquitin specific peptidase 27 X-linked) | 3 | 0.602 | 93.9 | -0.314 | 114 | inactive
HSD17B2 (hydroxysteroid 17-beta dehydrogenase 2) | 1 | -0.0345 | 81.2 | -0.263 | 97.2 | inactive
HSD17B2 (hydroxysteroid 17-beta dehydrogenase 2) | 2 | 0.757 | 96.9 | -0.103 | 111 | inactive
HSD17B2 (hydroxysteroid 17-beta dehydrogenase 2) | 3 | 0.286 | 87.6 | 0.0551 | 96.4 | inactive
NBL1 (NBL1, DAN family BMP antagonist) | 1 | 2.05 | 123 | 1.5 | 92.3 | inactive
NBL1 (NBL1, DAN family BMP antagonist) | 2 | 0.058 | 83 | -0.792 | 114 | inactive
NBL1 (NBL1, DAN family BMP antagonist) | 3 | -0.0748 | 80.4 | -0.665 | 107 | inactive
RINL (Ras and Rab interactor like) | 1 | 1.92 | 120 | 1.3 | 95.2 | inactive
RINL (Ras and Rab interactor like) | 2 | -0.107 | 79.8 | 0.533 | 77.5 | inactive
RINL (Ras and Rab interactor like) | 3 | -1.6 | 50 | 0.0237 | 55.6 | inactive
TRDN (triadin) | 1 | 0.319 | 88.2 | 0.407 | 88.6 | inactive
TRDN (triadin) | 2 | -0.698 | 68 | -0.313 | 82.5 | inactive
TRDN (triadin) | 3 | 0.887 | 99.5 | 0.962 | 86.3 | inactive
CELSR1 (cadherin EGF LAG seven-pass G-type receptor 1) | 1 | 1.52 | 112 | 1.58 | 82.6 | inactive
CELSR1 (cadherin EGF LAG seven-pass G-type receptor 1) | 2 | -0.484 | 72.3 | -1.1 | 108 | inactive
CELSR1 (cadherin EGF LAG seven-pass G-type receptor 1) | 3 | -1.07 | 60.6 | -1.76 | 108 | inactive
CARINH | 1 | 2.3 | 128 | 2.25 | 78.9 | inactive
CARINH | 2 | 1.87 | 119 | 2.3 | 72.6 | inactive
CARINH | 3 | -0.364 | 74.6 | -0.0455 | 84.4 | inactive
CCDC188 (coiled-coil domain containing 188) | 1 | 2.18 | 125 | 1.72 | 89.1 | inactive
CCDC188 (coiled-coil domain containing 188) | 2 | 2.14 | 125 | 1.47 | 94.4 | inactive
CCDC188 (coiled-coil domain containing 188) | 3 | -0.0385 | 81.1 | -0.453 | 102 | inactive
GPI (glucose-6-phosphate isomerase) | 1 | 1.95 | 121 | 1.32 | 95.2 | inactive
GPI (glucose-6-phosphate isomerase) | 2 | 1.75 | 117 | 1.66 | 84.2 | inactive
GPI (glucose-6-phosphate isomerase) | 3 | 1.57 | 113 | 1.43 | 86.6 | inactive
TNFRSF13C (TNF receptor superfamily member 13C) | 1 | 2.79 | 137 | 1.61 | 100 | inactive
TNFRSF13C (TNF receptor superfamily member 13C) | 2 | 2.99 | 141 | 2.43 | 83.3 | inactive
TNFRSF13C (TNF receptor superfamily member 13C) | 3 | 1.2 | 106 | 0.887 | 93.5 | inactive
CR1 (complement C3b/C4b receptor 1 (Knops blood group)) | 1 | 0.649 | 94.8 | -0.0421 | 107 | inactive
CR1 (complement C3b/C4b receptor 1 (Knops blood group)) | 2 | -0.849 | 65 | -0.897 | 92 | inactive
CR1 (complement C3b/C4b receptor 1 (Knops blood group)) | 3 | 1.23 | 106 | 0.66 | 99.8 | inactive
IL1A (interleukin 1 alpha) | 1 | -0.181 | 78.3 | -0.522 | 100 | inactive
IL1A (interleukin 1 alpha) | 2 | -0.489 | 72.2 | -1.19 | 110 | inactive
IL1A (interleukin 1 alpha) | 3 | -0.314 | 75.6 | -0.237 | 90 | inactive
KCNK17 (potassium two pore domain channel subfamily K member 17) | 1 | -0.88 | 64.4 | -1.25 | 100 | inactive
KCNK17 (potassium two pore domain channel subfamily K member 17) | 2 | 1.43 | 110 | 0.957 | 95.8 | inactive
KCNK17 (potassium two pore domain channel subfamily K member 17) | 3 | 1.82 | 118 | 1.42 | 90.9 | inactive
PAN3 (poly(A) specific ribonuclease subunit PAN3) | 1 | 1.41 | 110 | 1.04 | 93.3 | inactive
PAN3 (poly(A) specific ribonuclease subunit PAN3) | 2 | -0.0974 | 80 | 0.0991 | 87 | inactive
PAN3 (poly(A) specific ribonuclease subunit PAN3) | 3 | 0.217 | 86.2 | 0.511 | 84.2 | inactive
ZDHHC3 (zDHHC palmitoyltransferase 3) | 1 | -0.507 | 71.8 | 0.308 | 74 | inactive
ZDHHC3 (zDHHC palmitoyltransferase 3) | 2 | -0.516 | 71.6 | -0.508 | 91.5 | inactive
ZDHHC3 (zDHHC palmitoyltransferase 3) | 3 | -0.0525 | 80.8 | -0.183 | 94.8 | inactive
DEFB118 (defensin beta 118) | 1 | -0.173 | 78.4 | -0.579 | 102 | inactive
DEFB118 (defensin beta 118) | 2 | 0.29 | 87.7 | 0.0173 | 97.5 | inactive
DEFB118 (defensin beta 118) | 3 | -1.56 | 50.9 | -2.11 | 99 | inactive
LOC646179 (retired record) | 1 | 2.72 | 136 | 2.01 | 89.5 | inactive
LOC646179 (retired record) | 2 | 0.918 | 100 | 0.535 | 97.2 | inactive
LOC646179 (retired record) | 3 | -0.422 | 73.5 | -0.733 | 99.6 | inactive
ELMOD1 (ELMO domain containing 1) | 1 | 1.08 | 103 | 0.857 | 92.1 | inactive
ELMOD1 (ELMO domain containing 1) | 2 | 1.01 | 102 | 1.07 | 86 | inactive
ELMOD1 (ELMO domain containing 1) | 3 | -0.927 | 63.5 | 0.281 | 65.8 | inactive
ELMOD1 (ELMO domain containing 1) | 4 | -0.309 | 75.7 | 0.0869 | 82.7 | inactive
ELMOD1 (ELMO domain containing 1) | 5 | 0.465 | 91.1 | 0.69 | 84.9 | inactive
ELMOD1 (ELMO domain containing 1) | 6 | 0.622 | 94.3 | 0.526 | 91.7 | inactive

Look-ups from the list.
Result of NBL1 (NBL1, DAN family BMP antagonist) #1 under “Call”: inactive
Value for ZDHHC3 (zDHHC palmitoyltransferase 3) #2 under “total luciferase, z-score”: -0.516
Under “viable cells, % of control”, ZDHHC3 (zDHHC palmitoyltransferase 3) #3 shows 94.8
Value of ELMOD1 (ELMO domain containing 1) #3 in “viable cells, % of control”: 65.8
ELMOD1 (ELMO domain containing 1) #1, Call: inactive
DEFB118 (defensin beta 118) #3, total luciferase, % of control: 50.9
